All values are for the listed drug together with sunitinib (0.4 µM): CCN(CC)CCNC(=O)c1c(C)[nH]c(/C=C2\C(=O)Nc3ccc(F)cc32)c1C

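The test systems are human melanoma cell lines, treated with two drugs together for 72 h and then stained and imaged. The read-out is cell count (nuclei) in % of the DMSO control; lower values mean stronger growth inhibition or killing. Every drug was used at one fixed concentration, the lower of two screened (a fifth of the higher). These are primary screening values without error estimates.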 An unselected part of the screen is shown. A dash means that no value is listed here.

Partner,LB2518-MEL,COLO 800,COLO 829,LOX IMVI,501mel,A101D,A375,A2058,IST-MEL1
Nc1cccc2c1CN(C1CCC(=O)NC1=O)C2=O (stereo not drawn) at 1 µM,97.2,101,127,100,-,80.3,94.5,110,94.9
O=C(Nc1cccc(Cl)c1)Nc1ncc(CCNc2ncnc3ccsc23)s1 at 0.0008 µM,100,45.0,109,68.5,-,81.7,80.7,102,103
CC1(C)NC(=O)N(c2ccc([N+](=O)[O-])c(C(F)(F)F)c2)C1=O at 1 µM,-,65.1,104,106,-,102,85.3,111,106
OCc1c[nH]c2ccccc12 at 0.8 µM,109,74.0,67.3,96.1,-,88.5,97.1,106,99.4
Cc1cc(Nc2cc(N3CCN(C)CC3)nc(/C=C/c3ccccc3)n2)n[nH]1 at 0.04 µM,110,70.5,131,107,-,111,118,117,106
O=C(/C=C/c1cccnc1)NCCCCC1CCN(C(=O)c2ccccc2)CC1 at 0.01 µM,102,19.9,86.5,69.6,-,93.6,85.3,108,71.6
c1cc(-c2cnn3cc(-c4ccc(OCCN5CCCCC5)cc4)cnc23)ccn1 at 0.4 µM,110,85.4,122,112,70.2,83.9,-,102,100
CN(C)S(=O)(=O)c1ccc2c(c1)/C(=C/c1cc3c([nH]1)CCCC3)C(=O)N2 at 0.4 µM,92.3,50.2,114,115,-,75.4,98.8,100,97.4
C[C@@H](Oc1cc(-c2cnn(C3CCNCC3)c2)cnc1N)c1c(Cl)ccc(F)c1Cl at 0.2 µM,102,58.9,94.2,96.9,-,78.3,94.5,103,98.2
CS(=O)(=O)c1ccc(C(=O)Nc2ccc(Cl)c(-c3ccccn3)c2)c(Cl)c1 at 1 µM,113,103,88.6,150,-,80.8,87.3,98.4,91.6
N#Cc1c(O)c2c(-c3ccc(-c4ccccc4O)cc3)csc2[nH]c1=O at 2 µM,83.9,66.0,122,120,71.5,84.1,-,122,103
Cc1cc(Nc2cc(N3CCN(C)CC3)nc(Sc3ccc(NC(=O)C4CC4)cc3)n2)n[nH]1 at 0.006 µM,96.2,97.5,88.4,96.5,-,104,98.2,94.9,104
O=C(O)c1ccc(-c2c[nH]c3ncc(-c4ccccc4)cc23)cc1C1CCCC1 at 0.16 µM,94.9,59.9,120,95.9,-,95.6,75.6,103,94.9
O=C(O)C(=O)Nc1sc2c(c1C(=O)O)CCNC2 at 1.67 µM,-,136,152,160,-,78.8,-,105,109
CCCCCCCCCCCCCCCCCCOP(=O)([O-])OC1CC[N+](C)(C)CC1 at 0.4 µM,111,68.6,122,94.2,-,89.1,81.2,108,96.9
Cn1nnc2c(C(N)=O)ncn2c1=O at 2 µM,116,62.7,104,121,-,88.2,92.1,85.6,97.2
CCN(CC)CCCCNc1ncc2cc(-c3cc(OC)cc(OC)c3)c(NC(=O)NC(C)(C)C)nc2n1 at 0.1 µM,101,79.0,121,81.2,65.3,85.4,-,105,106
COc1ccc(COc2ccc(Cc3cnc(N)nc3N)cc2OC)cc1 at 1 µM,103,50.3,122,99.5,62.8,84.7,-,102,96.9
Cc1cc(N2CCOCC2)cc2[nH]c(-c3c(NC[C@@H](O)c4cccc(Cl)c4)cc[nH]c3=O)nc12 at 0.2 µM,85.6,46.4,145,122,-,89.2,58.9,110,97.7
C=C(c1ccc(C(=O)O)cc1)c1cc2c(cc1C)C(C)(C)CCC2(C)C at 2 µM,141,142,140,104,-,96.2,110,94.5,102
CC[C@]1(O)C[C@H]2CN(CCc3c([nH]c4ccccc34)[C@@](C(=O)OC)(c3cc4c(cc3OC)N(C=O)[C@H]3[C@@](O)(C(=O)OC)[C@H](OC(C)=O)[C@]5(CC)C=CCN6CC[C@]43[C@@H]65)C2)C1 at 0.0001 µM,117,75.3,105,97.5,-,72.4,90.5,80.5,109
NCC(=O)Nc1ccc(-n2nc(C(F)(F)F)cc2-c2ccc3c(ccc4ccccc43)c2)cc1 at 1 µM,89.9,84.2,92.9,110,-,102,17.5,110,99.2
C#Cc1cccc(Nc2ncnc3cc(OCCOC)c(OCCOC)cc23)c1 at 0.8 µM,116,85.8,103,116,-,73.8,61.0,85.6,107
COc1ccc(C2=N[C@@H](c3ccc(Cl)cc3)[C@@H](c3ccc(Cl)cc3)N2C(=O)N2CCNC(=O)C2)c(OC(C)C)c1 at 0.1 µM,93.9,68.7,88.1,126,-,89.9,96.5,101,104
Nc1nc(F)nc2c1ncn2[C@@H]1O[C@H](CO)[C@@H](O)[C@@H]1O at 0.2 µM,103,78.6,126,152,-,92.9,27.0,99.4,104
Cc1ccc(Nc2nccc(N(C)c3ccc4c(C)n(C)nc4c3)n2)cc1S(N)(=O)=O at 0.4 µM,96.1,119,94.2,106,-,101,104,127,101
CCCS(=O)(=O)Nc1ccc(F)c(C(=O)c2c[nH]c3ncc(Cl)cc23)c1F at 0.08 µM,104,78.1,130,127,-,62.3,72.8,97.4,91.3
C[C@@H]1CCN(C(=O)CC#N)C[C@@H]1N(C)c1ncnc2[nH]ccc12 at 1 µM,118,96.1,136,107,-,111,84.0,96.8,94.9
NC(=O)c1ccc(N(C(N)=O)c2c(F)cccc2F)nc1-c1ccc(F)cc1F at 0.4 µM,107,107,110,158,-,104,90.6,115,100
Cn1cc(/C=C2\C(=O)Nc3cccnc32)c2ccccc21 at 0.4 µM,104,57.0,120,126,69.7,46.5,-,97.4,106
Cc1nc(Nc2ncc(C(=O)Nc3c(C)cccc3Cl)s2)cc(N2CCN(CCO)CC2)n1 at 0.004 µM,86.2,106,123,106,-,83.2,90.3,87.1,108
CC(C)CCN1c2nc(Nc3cc(F)c(O)c(F)c3)ncc2N(C)C(=O)C1C (stereo not drawn) at 0.2 µM,56.7,77.1,126,132,74.2,80.5,-,107,104

The first 3 entries again:

| Partner | LB2518-MEL | COLO 800 | COLO 829 | LOX IMVI | 501mel | A101D | A375 | A2058 | IST-MEL1 |
|---|---|---|---|---|---|---|---|---|---|
| Nc1cccc2c1CN(C1CCC(=O)NC1=O)C2=O (stereo not drawn) at 1 µM | 97.2 | 101 | 127 | 100 | - | 80.3 | 94.5 | 110 | 94.9 |
| O=C(Nc1cccc(Cl)c1)Nc1ncc(CCNc2ncnc3ccsc23)s1 at 0.0008 µM | 100 | 45.0 | 109 | 68.5 | - | 81.7 | 80.7 | 102 | 103 |
| CC1(C)NC(=O)N(c2ccc([N+](=O)[O-])c(C(F)(F)F)c2)C1=O at 1 µM | - | 65.1 | 104 | 106 | - | 102 | 85.3 | 111 | 106 |

Source: doi:10.1371/journal.pone.0140310, primary screening data, rounded.